Values quoted from earlier work as cited in paper PMC4042406 (British journal of haematology, 2011).

Test system: most MM cell lines
Conditions: ref MacCallum, et al 2005, Raje; cited from earlier work

**Q.** With `CC[C@H](CO)Nc1nc(NCc2ccccc2)c2ncn(C(C)C)c2n1` [seliciclib] as the compound, how does the EC50 read?
**A.** > 10 µM
